Test results as given in PubChem BioAssay AID504467 (National Center for Advancing Translational Sciences (NCATS), 2011).
About 7,700 (2.3%) of roughly 330,000 compounds were called active. Inconclusive results, whose numbers are uncertain, are shown with a selection of clear calls. Calls come from the whole dose curve; as a rule, active = well fitted inhibition curve with a large enough effect; inconclusive = small, poorly fitted or top-dose-only effect, or effect the other way; inactive = flat fitted curve, though single readings scatter. Potencies beside an inconclusive call are fits to weak or partial responses and may not hold up.

assay: qHTS screen for small molecules that inhibit ELG1-dependent DNA repair in human embryonic kidney (HEK293T) cells expressing luciferase-tagged ELG1; conditions: HEK293T ELG1-luciferase reporter, luminescence, 16 h, DNA damage induced by 5-fluorouridine; activity change, negative = inhibition: at 46.1 µM (top of the series); note: nearly all actives have a fitted effect of over 55% in size
In short: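 DMSO vehicle served as the neutral condition. Each well held 2,000 cells given 5-fluorouridine plus compound; after 16 hr at 37 °C/5% CO2, ONE-Glo was added and luciferase measured 30 min later.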
% is set by controls: 0 for no effect and ±100 for the full control effect; potency is the fitted concentration of half-maximal effect.

| SMILES | activity change, negative = inhibition | Potency |
| --- | --- | --- |
| Cc1cccnc1NC(=O)c1ccccc1NC(=O)C(C)(C)C | inactive: -2.94% | – |
| CCOC(=O)C(CC(=O)Nc1nc(C(C)=O)c(C)s1)C(C)c1ccccc1 (configuration not stated) | – | inconclusive: 16.4 µM [inhibitor, single point] |
| CC(C)CNC(=O)c1cccc(NC(=O)CSc2ccc(Cl)cc2)c1 | inactive: -13.1% | – |
| Cc1ccc(NC(=S)N2CCCCC2CO)cc1C (configuration not stated) | – | inconclusive: 29.1 µM [activator, single point] |
| Cc1ccc(-c2[nH]c(-c3ccc(C(=O)O)cc3)nc2-c2ccccc2)cc1 | inactive: 14.4% | – |
| CC(NC(=O)CN1C(=O)NC(C)(C2CC2)C1=O)c1ccc(F)cc1 (configuration not stated) | – | inconclusive: 8.2 µM [activator, single point] |
| CCc1ccc(NC(=O)N[C@H](C(=O)O)C(C)CC)cc1 (some centres not stated) | – | inconclusive: 23.1 µM [activator, partial curve] |
| Cc1ccc2c(c1)C1CCCC3C1N2CC(=O)N3Cc1ccccc1 (configuration not stated) | – | inconclusive: 23.1 µM [inhibitor, partial curve] |
| O=C(Cc1ccc([N+](=O)[O-])cc1)NCc1ccccn1 | inactive: 10.7% | – |
| Cc1ccc(NC(=O)c2ccc3c(c2)OCCO3)cc1 | inconclusive: 155% [activator] | – |
| CC(/C=N/n1c(-c2ccco2)n[nH]c1=S)=C\c1ccccc1 | inactive: -0.0792% | – |
| COc1cc(OC)c(OC)cc1CN1CCN(S(=O)(=O)c2ccc(NC(C)=O)cc2)CC1 | – | inconclusive: 29.1 µM [inhibitor, single point] |
| CC(C)CC(NC(N)=O)C(=O)OCC(=O)Nc1ccc(OC(F)F)cc1 (configuration not stated) | inactive: 8.56% | – |
| CCn1ccnc1[C@@H]1C[C@H]2CN(Cc3ccccc3OC)C(=O)[C@]23CCCN13 | inactive: 2.55% | – |
| Cc1ccc(N2CCOCC2)c2c1C(=O)c1ccccc1C2=O | – | inconclusive: 18.4 µM [inhibitor, partial curve, poor fit] |
| O=C(NS(=O)(=O)N1CCCC1)C1=C(N2CCCC2)COC1=O | – | inconclusive: 29.1 µM [activator, single point] |
| O=C(CSc1nnc(-c2cccc(Br)c2)o1)N1CCNC1=O | – | inconclusive: 4.61 µM [activator, partial curve] |
| Cc1oc(-c2cccs2)nc1CN1CCN(C(C)C)C(CCO)C1 (configuration not stated) | inactive: -8.39% | – |
| NS(=O)(=O)c1ccc(CCNC(=O)c2cc([N+](=O)[O-])ccc2N2CCCCC2)cc1 | – | inconclusive: 4.61 µM [inhibitor, partial curve, poor fit] |
| O=S(=O)(c1cnc(Cl)c(Cl)c1)N1CCCc2ccccc21 | – | inconclusive: 32.6 µM [inhibitor, single point] |
| CCc1ccc(NC(=O)c2cnc(SC)nc2C)cc1 | – | inconclusive: 18.3 µM [activator, partial curve, poor fit] |
| CN(C)CCCNC(=O)c1ccc(-c2nc(-c3ccc(Cl)cc3)cs2)cc1 | – | inconclusive: 16.4 µM [activator, partial curve] |
| NC(=O)CSc1nc2ccccc2n1Cc1ccccc1 | inactive: -6.24% | – |
| Cc1ccc(NC(=O)c2ccc(NCc3ccc(F)cc3)nc2)cc1 | – | inconclusive: 29.1 µM [activator, single point] |

As a short view, 3 of the compounds above.

| SMILES | activity change, negative = inhibition | Potency |
| --- | --- | --- |
| COc1cc(OC)c(OC)cc1CN1CCN(S(=O)(=O)c2ccc(NC(C)=O)cc2)CC1 | – | inconclusive: 29.1 µM [inhibitor, single point] |
| CC(C)CC(NC(N)=O)C(=O)OCC(=O)Nc1ccc(OC(F)F)cc1 (configuration not stated) | inactive: 8.56% | – |
| CCn1ccnc1[C@@H]1C[C@H]2CN(Cc3ccccc3OC)C(=O)[C@]23CCCN13 | inactive: 2.55% | – |

(listing goes on)

| SMILES | activity change, negative = inhibition | Potency |
| --- | --- | --- |
| CCn1cc(Br)c(C(=O)Nc2ccc(OC)cc2)n1 | – | inconclusive: 9.2 µM [activator, partial curve] |
| Cc1ccc(NC(=O)Nn2cnnc2)cc1Cl | inactive: 7.07% | – |
| COc1ccc(N2CCN(C(=O)c3ccc(Cn4c(=S)[nH]c5ccc(N6CCOCC6)cc5c4=O)cc3)CC2)cc1 | – | inconclusive: 20.6 µM [inhibitor, single point] |
| CC1=C(C(=O)Nc2ccccc2C(=O)NC2CCC(C)CC2)SCCO1 (configuration not stated) | – | inconclusive: 25.9 µM [activator, single point] |
| O=C(Nc1ccc(Cl)cc1)C1CCCN(C2=NS(=O)(=O)c3ccccc32)C1 (configuration not stated) | inactive: -10.7% | – |
| Cc1ccccc1Nc1nc(-c2cccnc2)nc2ccccc12 | – | inconclusive: 29.1 µM [inhibitor, single point] |
| CC1CN(C(=S)Nc2ccccc2)N(c2ccccc2)C1 (configuration not stated) | – | inconclusive: 18.3 µM [inhibitor, partial curve, poor fit] |
| CCCc1cc(=O)n2[nH]c(-c3ccc(OC)cc3)nc2n1 | – | inconclusive: 29.1 µM [activator, single point] |
| O=C(COc1ccccc1F)c1ccc(O)cc1O | inactive: 25.8% | – |
| CCn1nc(C)cc1Nc1ccccc1 | inactive: 13.1% | – |
| CN1/C(=C/C=N/NC(=O)c2ccc([N+](=O)[O-])cc2)C(C)(C)c2ccccc21 | – | inconclusive: 23.1 µM [inhibitor, partial curve, poor fit] |
| COc1ccccc1OCC(=O)Nc1sc2c(c1C(=O)NCC1CCCO1)CCC2 (configuration not stated) | – | inconclusive: 18.4 µM [inhibitor, single point] |
| O=C(Nc1ccc(OC(F)(F)F)cc1)Nc1cccnc1 | – | inconclusive: 14.6 µM [activator, partial curve] |
| COc1ccc(Br)cc1CNC(=O)Cn1nc(C)n2cccc2c1=O | inactive: -0.307% | – |
| Nc1nc(-c2ccc(-c3ccccc3)cc2)cs1 | – | inconclusive: 2.06 µM [activator, full curve] |
| COc1ccc(N2C(S)=C(C#N)C(=O)NC23CCCCC3)cc1 | inactive: 15.1% | – |
| C/C(=N\Nc1ccc(Cl)c(C(=O)O)c1)c1ccc[nH]1 | – | inconclusive: 29.1 µM [activator, single point] |
| CCc1cc(C(=O)NC2CCCN(Cc3ccccc3F)C2)n(C)n1 (configuration not stated) | – | inconclusive: 3.26 µM [inhibitor, partial curve] |
| Cc1ccc(C(CC(=O)N2CCNCC2)c2ccccc2)c(O)c1C (configuration not stated) | inactive: 3.5% | – |
| Cc1ccc(N=C2CSC(=O)N2)cc1 | – | inconclusive: 13 µM [activator, partial curve, poor fit] |
| CCOC(=O)[C@H]1[C@H]2COc3ccc(Cl)cc3[C@@H]2N2C(=O)c3ccccc3NC(=O)[C@@]12C | inactive: 26% | – |
| Cn1cccc1C(=O)NNC(=O)COc1ccccc1F | – | inconclusive: 20.6 µM [activator, partial curve] |
| COc1cc(NC(=O)Cn2cnc(S(=O)(=O)N3CCCC3)c2)cc(OC)c1OC | inactive: 10.6% | – |
